{"sequences": {"note": "Amino acid sequences for entries named in this document (tags omitted). A change or cut given only in a name is not applied to a line headed by its entry.", "UniProt Q8C0S1": "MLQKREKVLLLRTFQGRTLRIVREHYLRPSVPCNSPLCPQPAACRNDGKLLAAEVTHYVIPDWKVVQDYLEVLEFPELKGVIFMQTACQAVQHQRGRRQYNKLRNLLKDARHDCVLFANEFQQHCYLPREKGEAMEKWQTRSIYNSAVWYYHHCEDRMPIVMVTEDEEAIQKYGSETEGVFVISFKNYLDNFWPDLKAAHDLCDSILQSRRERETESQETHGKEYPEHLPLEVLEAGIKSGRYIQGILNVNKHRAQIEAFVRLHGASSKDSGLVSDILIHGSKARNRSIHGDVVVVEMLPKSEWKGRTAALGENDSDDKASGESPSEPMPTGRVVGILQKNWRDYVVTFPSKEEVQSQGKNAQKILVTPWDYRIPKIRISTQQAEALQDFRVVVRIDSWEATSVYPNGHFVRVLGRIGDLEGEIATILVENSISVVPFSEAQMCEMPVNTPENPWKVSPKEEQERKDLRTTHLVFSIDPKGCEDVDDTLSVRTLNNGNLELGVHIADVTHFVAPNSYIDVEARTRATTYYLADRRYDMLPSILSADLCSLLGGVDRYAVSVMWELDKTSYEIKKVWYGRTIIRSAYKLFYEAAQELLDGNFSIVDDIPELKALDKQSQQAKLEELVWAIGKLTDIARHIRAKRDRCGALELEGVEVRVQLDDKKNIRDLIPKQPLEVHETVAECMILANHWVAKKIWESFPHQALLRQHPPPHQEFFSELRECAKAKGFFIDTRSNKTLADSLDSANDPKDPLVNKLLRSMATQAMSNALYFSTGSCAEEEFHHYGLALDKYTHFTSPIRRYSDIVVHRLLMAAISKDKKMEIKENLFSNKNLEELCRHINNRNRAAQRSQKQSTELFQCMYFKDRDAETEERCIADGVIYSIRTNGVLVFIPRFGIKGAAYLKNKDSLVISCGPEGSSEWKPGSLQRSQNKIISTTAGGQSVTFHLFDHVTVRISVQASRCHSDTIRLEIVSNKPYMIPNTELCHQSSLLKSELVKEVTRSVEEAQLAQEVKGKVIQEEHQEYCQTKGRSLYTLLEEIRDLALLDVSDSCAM", "UniProt Q6NZR5": "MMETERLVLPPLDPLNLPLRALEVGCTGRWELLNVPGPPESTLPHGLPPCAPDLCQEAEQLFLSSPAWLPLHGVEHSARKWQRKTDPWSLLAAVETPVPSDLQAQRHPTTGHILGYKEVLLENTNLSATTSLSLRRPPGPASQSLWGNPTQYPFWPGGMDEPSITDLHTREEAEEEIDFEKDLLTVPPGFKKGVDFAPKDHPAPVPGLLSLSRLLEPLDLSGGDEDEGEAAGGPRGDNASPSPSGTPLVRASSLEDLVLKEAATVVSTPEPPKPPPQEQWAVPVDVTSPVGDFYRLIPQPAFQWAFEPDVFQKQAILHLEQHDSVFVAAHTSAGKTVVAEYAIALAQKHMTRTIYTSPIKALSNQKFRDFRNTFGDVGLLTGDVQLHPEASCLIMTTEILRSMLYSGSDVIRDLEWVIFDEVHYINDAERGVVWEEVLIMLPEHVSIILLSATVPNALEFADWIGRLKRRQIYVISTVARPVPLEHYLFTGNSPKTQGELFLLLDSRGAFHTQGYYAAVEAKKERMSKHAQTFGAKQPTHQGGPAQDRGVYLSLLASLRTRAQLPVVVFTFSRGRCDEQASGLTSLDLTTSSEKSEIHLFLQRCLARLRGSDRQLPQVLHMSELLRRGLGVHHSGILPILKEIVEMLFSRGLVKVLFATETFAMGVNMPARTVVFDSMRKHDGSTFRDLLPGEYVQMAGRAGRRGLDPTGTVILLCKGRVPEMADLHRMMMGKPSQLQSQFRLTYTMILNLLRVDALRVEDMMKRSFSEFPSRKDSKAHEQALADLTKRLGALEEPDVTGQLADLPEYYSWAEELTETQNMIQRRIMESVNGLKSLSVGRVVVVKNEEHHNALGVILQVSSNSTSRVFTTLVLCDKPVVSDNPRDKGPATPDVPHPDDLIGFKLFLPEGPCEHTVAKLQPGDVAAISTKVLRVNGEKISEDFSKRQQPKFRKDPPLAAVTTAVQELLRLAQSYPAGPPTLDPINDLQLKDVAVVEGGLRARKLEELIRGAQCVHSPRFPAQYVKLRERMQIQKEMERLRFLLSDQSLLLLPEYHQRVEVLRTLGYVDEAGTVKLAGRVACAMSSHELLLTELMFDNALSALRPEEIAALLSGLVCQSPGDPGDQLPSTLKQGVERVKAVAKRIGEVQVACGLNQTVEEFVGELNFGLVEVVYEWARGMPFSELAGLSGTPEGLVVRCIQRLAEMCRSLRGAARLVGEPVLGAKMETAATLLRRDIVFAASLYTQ"}, "source": "paper PMC7083229", "molecular_target": "2xHA-FKBP12(F36V)-tagged DIS3L (mouse (endogenous in mESCs)) (UniProt Q8C0S1)", "assay": "co-IP; anti-HA antibody on Protein-G Dynabeads from lysate of Dis3l-2xHA-FKBP12(F36V) / Skiv2l-3xFLAG-Avi mESCs (cMB510); 10 mM Tris-HCl pH 7.4, 150 mM NaCl, 2.5 mM MgCl2, 0.5% NP-40; 4°C; western blot with anti-HA, anti-Flag, anti-Mtr4", "note": "Results are given in words; binding and its absence hold for the method and conditions named. In cells and extracts the contact can be indirect. Some results given as binding are weak or reduced against the parent protein; the word gives no strength.", "data": [{"substance": "3xFLAG-Avi-tagged SKIV2L (from UniProt Q6NZR5 1-1244) (enzyme)", "values": [{"measurement": "binding", "result": "binds"}]}]}
